Results deposited as PubChem BioAssay AID1259308 (NCATS, 2017).
The whole screen tested about 59,000 reagents; this is a random part of them. Of all reagents, about 1,510 (2.6%) were called active. 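Calls use total luciferase alone and ignore viability, so some active siRNAs may act by altering cell number.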 Entries without a mark were called inactive. Not all columns of the deposit are shown.

Test: 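Candidate targets for better recombinant protein yield in mammalian cells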 (primary screen)
Cells: human HEK293 embryonic kidney cells stably expressing firefly luciferase (HEK-CMV-Luc2-Hygro)
Knock-down reagent: single siRNA against human genes, 0.8 pmol siRNA per well
Duration: 72 h
Measurement: 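Reporter luminescence and viable-cell signal on separate replicate plates, given as percent of non-targeting control and median/MAD z-scores, plus per-cell luciferase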
Direction: total luciferase, z-score and total luciferase, % of control: higher = more reporter protein produced; luciferase per cell, z-score: higher = more reporter output per viable cell
Call rule: 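An siRNA counts as active if its total luciferase robust z-score exceeds 3; genes with two or more such siRNAs out of three were retested with fresh siRNAs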
Meaning of the calls: active = raised luciferase; inactive = no rise

| gene symbol | PubChem SID | total luciferase, z-score | total luciferase, % of control | luciferase per cell, z-score |
| --- | --- | --- | --- | --- |
| TRAF6 (GeneID 7189) | SID160718330 | 3.52 (active) | 152 | 2.35 |
| TRAF6 (GeneID 7189) | SID160718331 | 1.33 | 108 | 1.02 |
| TRAF6 (GeneID 7189) | SID160718332 | 1.04 | 103 | 0.638 |
| WFDC2 (GeneID 10406) | SID160724259 | 6.37 (active) | 209 | 4.65 |
| WFDC2 (GeneID 10406) | SID160724260 | -0.0602 | 80.7 | -0.146 |
| WFDC2 (GeneID 10406) | SID160728353 | -0.77 | 66.6 | -0.303 |
| OR5K4 (GeneID 403278) | SID160767492 | -1.94 | 43.3 | -0.291 |
| OR5K4 (GeneID 403278) | SID160767494 | 1.56 | 113 | 1.32 |
| OR5K4 (GeneID 403278) | SID160767495 | -1.48 | 52.4 | -1.88 |
| SLFN14 (GeneID 342618) | SID160764631 | 0.297 | 87.8 | 0.689 |
| SLFN14 (GeneID 342618) | SID160764632 | 0.158 | 85 | -0.682 |
| SLFN14 (GeneID 342618) | SID160764633 | 0.0826 | 83.5 | -0.848 |
| SLC25A53 (GeneID 401612) | SID160767350 | -0.76 | 66.8 | 0.113 |
| SLC25A53 (GeneID 401612) | SID160767351 | 0.276 | 87.4 | 0.0834 |
| SLC25A53 (GeneID 401612) | SID160767352 | 1.24 | 107 | 0.684 |
| KAAG1 (GeneID 353219) | SID160765169 | -0.173 | 78.4 | 0.16 |
| KAAG1 (GeneID 353219) | SID160765170 | 0.699 | 95.8 | 1.06 |
| KAAG1 (GeneID 353219) | SID160765171 | 1.25 | 107 | 1.31 |
| ZNF566 (GeneID 84924) | SID160752951 | 0.907 | 99.9 | 0.27 |
| ZNF566 (GeneID 84924) | SID160752952 | -0.3 | 75.9 | -0.00304 |
| ZNF566 (GeneID 84924) | SID160752953 | 0.776 | 97.3 | 0.922 |
| FNDC8 (GeneID 54752) | SID160742101 | -0.193 | 78 | 3.39 |
| FNDC8 (GeneID 54752) | SID160742102 | 0.074 | 83.4 | -0.0331 |
| FNDC8 (GeneID 54752) | SID160742103 | 0.484 | 91.5 | 0.253 |
| ZKSCAN5 (GeneID 23660) | SID160736780 | 0.945 | 101 | 0.49 |
| ZKSCAN5 (GeneID 23660) | SID160736781 | -1.17 | 58.7 | -0.695 |
| ZKSCAN5 (GeneID 23660) | SID160736784 | 2.01 | 122 | 1.43 |
| TRIM74 (GeneID 378108) | SID160765520 | 2.71 | 136 | 1.88 |
| TRIM74 (GeneID 378108) | SID160765522 | -0.461 | 72.7 | -0.816 |
| TRIM74 (GeneID 378108) | SID160765523 | 1.19 | 106 | 0.121 |
| SUZ12 (GeneID 23512) | SID160736430 | -0.00315 | 81.8 | 0.997 |
| SUZ12 (GeneID 23512) | SID160736431 | -0.545 | 71 | -0.371 |
| SUZ12 (GeneID 23512) | SID160736432 | -0.0585 | 80.7 | -0.408 |
| PPIL2 (GeneID 23759) | SID160736839 | -0.444 | 73.1 | -0.6 |
| PPIL2 (GeneID 23759) | SID160736840 | -0.549 | 71 | 0.158 |
| PPIL2 (GeneID 23759) | SID160736842 | 0.228 | 86.4 | -0.13 |
| TFCP2 (GeneID 7024) | SID160717944 | -0.819 | 65.6 | -0.608 |
| TFCP2 (GeneID 7024) | SID160717945 | 2.92 | 140 | 1.51 |
| TFCP2 (GeneID 7024) | SID160717946 | 0.522 | 92.3 | 0.386 |
| SLC7A4 (GeneID 6545) | SID160716899 | -0.0456 | 81 | -0.617 |
| SLC7A4 (GeneID 6545) | SID160716900 | 0.752 | 96.8 | -0.339 |
| SLC7A4 (GeneID 6545) | SID160716901 | -0.0896 | 80.1 | -0.424 |
| B3GNT4 (GeneID 79369) | SID160748842 | -0.302 | 75.9 | -0.552 |
| B3GNT4 (GeneID 79369) | SID160748843 | 1.29 | 108 | 0.573 |
| B3GNT4 (GeneID 79369) | SID160748844 | -2.18 | 38.5 | -1.25 |
| FOXD1 (GeneID 2297) | SID160766014 | 0.793 | 97.7 | 2.33 |
| FOXD1 (GeneID 2297) | SID160766025 | 0.127 | 84.4 | 0.395 |
| FOXD1 (GeneID 2297) | SID160766036 | -0.773 | 66.5 | -1.16 |
| RAB15 (GeneID 376267) | SID160765491 | 3.11 (active) | 144 | 2.56 |
| RAB15 (GeneID 376267) | SID160765492 | 0.388 | 89.6 | 0.358 |
| RAB15 (GeneID 376267) | SID160765493 | -0.47 | 72.5 | -0.811 |
| MILR1 (GeneID 284021) | SID160763119 | -0.55 | 70.9 | -0.309 |
| MILR1 (GeneID 284021) | SID160763121 | 0.478 | 91.4 | 0.522 |
| MILR1 (GeneID 284021) | SID160763122 | 0.897 | 99.7 | 1.58 |
| OR10K1 (GeneID 391109) | SID160733267 | 1.29 | 108 | 0.476 |
| OR10K1 (GeneID 391109) | SID160766634 | 0.181 | 85.5 | 1.17 |
| OR10K1 (GeneID 391109) | SID160766635 | 0.486 | 91.6 | 0.589 |
| OXCT2 (GeneID 64064) | SID160747384 | 1.75 | 117 | 2.54 |
| OXCT2 (GeneID 64064) | SID160747385 | -0.256 | 76.8 | -0.579 |
| OXCT2 (GeneID 64064) | SID160747386 | -0.997 | 62.1 | -0.702 |
| NKD1 (GeneID 85407) | SID160753246 | -0.653 | 68.9 | -0.424 |
| NKD1 (GeneID 85407) | SID160753247 | 0.2 | 85.9 | 0.0869 |
| NKD1 (GeneID 85407) | SID160753248 | -0.951 | 63 | -1.82 |
| ARMC8 (GeneID 25852) | SID160737123 | 1.48 | 111 | 1.2 |
| ARMC8 (GeneID 25852) | SID160737124 | -2.55 | 31.2 | -3.04 |
| ARMC8 (GeneID 25852) | SID160737125 | 1.33 | 108 | 0.53 |
| DHX58 (GeneID 79132) | SID160748662 | 0.0516 | 82.9 | -0.127 |
| DHX58 (GeneID 79132) | SID160748663 | 0.0931 | 83.7 | -0.0448 |
| DHX58 (GeneID 79132) | SID160748664 | -0.158 | 78.7 | -0.4 |
| TSPAN14 (GeneID 81619) | SID160750904 | 6.03 (active) | 202 | 3.59 |
| TSPAN14 (GeneID 81619) | SID160750906 | -2.32 | 35.7 | -3.44 |
| TSPAN14 (GeneID 81619) | SID160750907 | -0.367 | 74.6 | -0.577 |
| C6orf118 (GeneID 168090) | SID160732624 | 1.02 | 102 | 0.542 |
| C6orf118 (GeneID 168090) | SID160760283 | -0.171 | 78.5 | 0.274 |
| C6orf118 (GeneID 168090) | SID160760285 | -0.464 | 72.7 | -0.62 |

Look-ups from the entries so far.
Entry for TRAF6 (GeneID 7189) [SID160718332] in “luciferase per cell, z-score”: 0.638
Value of OR10K1 (GeneID 391109) [SID160766634] in “luciferase per cell, z-score”: 1.17
Value for KAAG1 (GeneID 353219) [SID160765171] under “total luciferase, % of control”: 107
ZKSCAN5 (GeneID 23660) [SID160736780], luciferase per cell, z-score → 0.49
TFCP2 (GeneID 7024) [SID160717944], total luciferase, z-score = -0.819
For “luciferase per cell, z-score”, TSPAN14 (GeneID 81619) [SID160750906] reads -3.44
